Results deposited as PubChem BioAssay AID1508597 (Cure First, 2020).

Aim: 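Genes whose silencing sensitises or protects ovarian cancer cells against rucaparib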 (primary screen)
Cells: human ovarian carcinoma lines grown from tumours: OCI-P5x (papillary serous) and OCI-C5x (clear cell)
Reagents: siRNA pool against human genes, 1.25 pmol siRNA per well
Timing: 72 h or 96 h, depending on the cell culture
Conditions: rucaparib 20 µM (about IC30) or vehicle, present until read-out
Measured: 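ATP luminescence measured at 72 or 96 h according to the culture, then normalised and expressed as percent viability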
Direction: viability, normalised: higher = more viable cells remaining
Rule for the call: 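a well counts as a hit if its normalised viability is under 80 percent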
Meaning of the calls: active = viability under 80%; inactive = viability 80% or more
The whole screen tested about 2,100 reagents; below is a random part of them. 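Calls flag viability under 80% in either arm, not effects specific to rucaparib; the reference for percent is not stated.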 No sequences are given here. Not given: the 100% reference.

Target gene	rucaparib or vehicle	cell line	technical replicate	viability, normalised (%)	call
MET	Rucaparib	OCI-C5x (clear cell)	1	50.4	active
MET	Rucaparib	OCI-C5x (clear cell)	2	47	active
MET	Rucaparib	OCI-C5x (clear cell)	3	46.2	active
MET	Rucaparib	OCI-P5x (serous)	1	128	inactive
MET	Rucaparib	OCI-P5x (serous)	2	114	inactive
MET	Rucaparib	OCI-P5x (serous)	3	117	inactive
MET	Vehicle	OCI-C5x (clear cell)	1	64.6	active
MET	Vehicle	OCI-C5x (clear cell)	2	63.5	active
MET	Vehicle	OCI-C5x (clear cell)	3	74.2	active
MET	Vehicle	OCI-P5x (serous)	1	101	inactive
MET	Vehicle	OCI-P5x (serous)	2	83.7	inactive
MET	Vehicle	OCI-P5x (serous)	3	90	inactive
COQ8B	Rucaparib	OCI-C5x (clear cell)	1	46.5	active
COQ8B	Rucaparib	OCI-C5x (clear cell)	2	53	active
COQ8B	Rucaparib	OCI-C5x (clear cell)	3	47.9	active
COQ8B	Rucaparib	OCI-P5x (serous)	1	104	inactive
COQ8B	Rucaparib	OCI-P5x (serous)	2	62.1	active
COQ8B	Rucaparib	OCI-P5x (serous)	3	96.1	inactive
COQ8B	Vehicle	OCI-C5x (clear cell)	1	37.1	active
COQ8B	Vehicle	OCI-C5x (clear cell)	2	40.1	active
COQ8B	Vehicle	OCI-C5x (clear cell)	3	35.2	active
COQ8B	Vehicle	OCI-P5x (serous)	1	72.4	active
COQ8B	Vehicle	OCI-P5x (serous)	2	76.2	active
COQ8B	Vehicle	OCI-P5x (serous)	3	86.5	inactive
RAPGEF3	Rucaparib	OCI-C5x (clear cell)	1	47.7	active
RAPGEF3	Rucaparib	OCI-C5x (clear cell)	2	49.4	active
RAPGEF3	Rucaparib	OCI-C5x (clear cell)	3	66.5	active
RAPGEF3	Rucaparib	OCI-P5x (serous)	1	95.2	inactive
RAPGEF3	Rucaparib	OCI-P5x (serous)	2	108	inactive
RAPGEF3	Rucaparib	OCI-P5x (serous)	3	106	inactive
RAPGEF3	Vehicle	OCI-C5x (clear cell)	1	56.4	active
RAPGEF3	Vehicle	OCI-C5x (clear cell)	2	51.1	active
RAPGEF3	Vehicle	OCI-C5x (clear cell)	3	81.7	inactive
RAPGEF3	Vehicle	OCI-P5x (serous)	1	100	inactive
RAPGEF3	Vehicle	OCI-P5x (serous)	2	86.5	inactive
RAPGEF3	Vehicle	OCI-P5x (serous)	3	102	inactive
PRKD2	Rucaparib	OCI-C5x (clear cell)	1	49.6	active
PRKD2	Rucaparib	OCI-C5x (clear cell)	2	39.9	active
PRKD2	Rucaparib	OCI-C5x (clear cell)	3	38.9	active
PRKD2	Rucaparib	OCI-P5x (serous)	1	71.4	active
PRKD2	Rucaparib	OCI-P5x (serous)	2	76.1	active
PRKD2	Rucaparib	OCI-P5x (serous)	3	95.9	inactive
PRKD2	Vehicle	OCI-C5x (clear cell)	1	41.2	active
PRKD2	Vehicle	OCI-C5x (clear cell)	2	41.9	active
PRKD2	Vehicle	OCI-C5x (clear cell)	3	40.4	active
PRKD2	Vehicle	OCI-P5x (serous)	1	70.3	active
PRKD2	Vehicle	OCI-P5x (serous)	2	74.6	active
PRKD2	Vehicle	OCI-P5x (serous)	3	71.8	active
GEN1	Rucaparib	OCI-C5x (clear cell)	1	84.5	inactive
GEN1	Rucaparib	OCI-C5x (clear cell)	2	70	active
GEN1	Rucaparib	OCI-C5x (clear cell)	3	96.4	inactive
GEN1	Rucaparib	OCI-P5x (serous)	1	169	inactive
GEN1	Rucaparib	OCI-P5x (serous)	2	169	inactive
GEN1	Rucaparib	OCI-P5x (serous)	3	135	inactive
GEN1	Vehicle	OCI-C5x (clear cell)	1	70.4	active
GEN1	Vehicle	OCI-C5x (clear cell)	2	57	active
GEN1	Vehicle	OCI-C5x (clear cell)	3	61.5	active
GEN1	Vehicle	OCI-P5x (serous)	1	151	inactive
GEN1	Vehicle	OCI-P5x (serous)	2	114	inactive
GEN1	Vehicle	OCI-P5x (serous)	3	134	inactive

A stretch of the results above, for reference:
Target gene	rucaparib or vehicle	cell line	technical replicate	viability, normalised (%)	call
GEN1	Rucaparib	OCI-C5x (clear cell)	1	84.5	inactive
GEN1	Rucaparib	OCI-C5x (clear cell)	2	70	active
GEN1	Rucaparib	OCI-C5x (clear cell)	3	96.4	inactive
GEN1	Rucaparib	OCI-P5x (serous)	1	169	inactive
GEN1	Rucaparib	OCI-P5x (serous)	2	169	inactive
